Patent US20120020878A1, “FUSOGENIC PROPERTIES OF SAPOSIN C AND RELATED PROTEINS AND PEPTIDES FOR APPLICATION TO TRANSMEMBRANE DRUG DELIVERY SYSTEMS” (CHILDREN'S HOSPITAL MEDICAL CENTER, priority 2008, published 2012)

Test: Circular dichroism (195-250 nm) analyses of saposins with various phospholipids
Assay type: physicochemical
Description: To determine the specificity of saposin C-phospholipid interaction, a liposomal system is developed using CD, fluorescence emission shifts, and fluorescence quenching methods. Mutated saposins C's, produced to contain individual Trp (W), are termed saposin C(0W), (S37W), and (81W). These Trp-labeled saposin C's are as follows: saposin C(0W) has a Trp preceding the first NH2-terminal amino acid of mature saposin C, saposin C(S37W) has a Trp at residue 37 (i.e., in the middle), and saposin C(81W) has a Trp after the last COOH-terminal amino acid. These substitutions had no effect on the activation properties or CD spectra of saposin C.
Using CD spectroscopy, relative secondary structural changes of recombinant saposins are induced by membrane binding.
No changes are observed with saposin A and B in the PS (18:1,1) complexes. […] The CD data are collected on a Jasco 710 instrument, and deconvoluted using Yang's method (see Chang, C. T., Wu, C. S., and Yang, J. T. Anal. Biochem (1978) 91, 13-31).

B1: saposin C(S37W): saposin C with a Trp at residue 37 (i.e., in the middle) (protein, UniProt P07602 311-390, looked up, variant S37W)
Saposin-C: SDVYCEVCEFLVKEVTKLIDNNKTEKEILDAFDKMCWKLPKSLSEECQEVVDTYGSSILSILLEEVSPELVCSMLHLCSG
modifications: Saposin-C
effect of Trp substitution on CD spectra: no effect

B2: Saposin B: recombinant saposin B, member of the saposin family derived from prosaposin (protein, UniProt P07602 195-273, looked up)
Saposin-B: GDVCQDCIQMVTDIQTAVRTNSTFVQALVEHVKEECDRLGPGMADICKNYISQYSEIAIQMMMHMQPKEICALVGFCDE
modifications: Saposin-B
notes: recombinant saposin B, member of the saposin family derived from prosaposin
relative secondary structural changes induced by membrane binding: No changes

B3: Saposin A: saposin A, member of the saposin family derived from prosaposin (protein, UniProt P07602 60-142, looked up)
Saposin-A: SLPCDICKDVVTAAGDMLKDNATEEEILVYLEKTCDWLPKPNMSASCKEIVDSYLPVILDIIKGEMSRPGEVCSALNLCESLQ
modifications: Saposin-A
notes: saposin A, member of the saposin family derived from prosaposin
relative secondary structural changes induced by membrane binding: No changes
